This note sets out measurements from publication PMC3166307.

Results are given in words; binding and its absence hold for the method and conditions named. Binding seen in cells or lysates may run through a third protein. Some entries that bind do so weakly or less than the wild type. Where a sequence is shown, tags or fusion partners need not be part of it.

For assay [1], the target named is T1, MBP-EB1 (UniProt Q9XZ57).
T1 sequence: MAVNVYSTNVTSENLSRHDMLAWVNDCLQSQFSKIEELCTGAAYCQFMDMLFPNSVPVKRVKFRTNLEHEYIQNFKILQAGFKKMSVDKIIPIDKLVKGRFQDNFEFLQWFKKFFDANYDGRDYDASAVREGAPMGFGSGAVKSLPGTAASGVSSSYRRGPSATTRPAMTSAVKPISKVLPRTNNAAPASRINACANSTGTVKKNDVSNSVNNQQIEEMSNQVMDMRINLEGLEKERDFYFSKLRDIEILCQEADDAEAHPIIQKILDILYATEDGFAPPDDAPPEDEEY
In words: pull-down; 35S-labelled in vitro translated protein incubated 60 minutes with amylose resin coupled with MBP or MBP-EB1 in DIVEC buffer (50 mM Hepes pH 7.6, 1 mM MgCl2, 1 mM EGTA, 200 mM NaCl, 0.5% TritonX100); autoradiograph; only the target purified.

Assay [2] addresses T1, MBP-EB1. Put plainly: pull-down; extract of S2 cells expressing Kebab-GFP incubated 1 hr at 4°C with MBP or MBP-EB1 on amylose resin in DIVEC buffer (50 mM Hepes pH 7.6, 1 mM MgCl2, 1 mM EGTA, 200 mM NaCl, 0.5% TritonX100); western blot with an anti-Kebab antibody; only the target purified. (In western blotting, separated proteins are transferred to a membrane and probed.)

B1: Kebab (kinetochore and EB1 associated basic protein), wild type, in vitro translated (protein, UniProt F0JAI6 1-548)
chain: MSSMAKSPDMRTPGCCSPLRTKELLERQRSSRCTPAKGYLTPRNCQSPKHPEMRIPSIFVTDADYGLERPKQLLQRLERSLYRSSSASKVPPKHSLLASQNRQRTWEGPKTPEFRSRTNKTIPASEPRPRRAKELLEDLRSKHQGTPATKIPSQRNPKENQELSKSHTCIPSSEPQPIRPKLILERERQESITNRLASTSIDRLKTKPPRSSFTSSRLLVPQMGFSYPKDPKRLHESDKGIKLTTSKRKLDFKTELGTDWLRRELEKIGKEWRKKTDYQLRQLISGFVKQLVRLLPFNGITFSHLSRDCYVQQMVEALQQLQYTKKVNKSWLQTPNSTQAIAHVLELLNFLLDVLEHRKGEGMCALPVVSEKQRIEQLASASGTSYDVMSLQQKFENIKIEKERLNNYQESLMPESPVSKDMDKVTERDGNQDFVRLLDFQKETLHELQLQRLRLQEFSELVSLAKIKLKRCCKANKQCIEAFNDQIQDLADCVVLRNRNIGLLTQLHLNDNPKEEELHERMKQLQRLYEDNYSNLLQLNIKPPQGSP
modifications: 35S-methionine (radiolabelled)
Regarding B1, the binding entry in the assay with MBP-EB1 [1] is “binds”.

B2: Kebab-GFP (protein, UniProt F0JAI6 1-548)
chain: B1 chain
Turning to B2, the binding entry with MBP-EB1 [2] is “binds”.
